Drawing on article PMC7819943, “Rice protein-binding microarrays: a tool to detect cis-acting elements near promoter regions in rice”, this text covers binding signal for 23 sequences.

Protein sequences, listed by entry. Tags and fused reporters are not part of them.
UniProt Q0JBA9, entry or part of it: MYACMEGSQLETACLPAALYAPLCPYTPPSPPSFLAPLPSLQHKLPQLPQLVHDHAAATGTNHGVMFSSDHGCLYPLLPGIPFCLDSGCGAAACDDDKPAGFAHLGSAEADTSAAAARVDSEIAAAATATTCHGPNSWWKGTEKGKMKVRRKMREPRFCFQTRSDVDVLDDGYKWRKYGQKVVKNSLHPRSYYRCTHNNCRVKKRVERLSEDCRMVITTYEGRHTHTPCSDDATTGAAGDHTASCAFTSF

The list shows a part of the results.

The target of this assay is OsWRKY34 (Oryza sativa, UniProt Q0JBA9 1-250). Put plainly: protein-binding microarray (RPBM); PBS, 2% BSA, 51.3 ng/ul salmon testes DNA, 50 uM zinc acetate, 200 nM TF, 25 C, 1 h; high values mean tight binding. As to conditions: protein: recombinant; tags: N-terminal polyhistidine and DsRed monomer fusion (pET32a); label: CyDye5-dUTP incorporated in the synthesized complementary strand; 3' TTTTT single-stranded linker to array surface; dsDNA, one strand shown. The procedure, abridged: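 Polyhistidine-tagged DsRed fusions of transcription factors, joined at the N-terminus, were expressed in E. coli BL21-CodonPlus and isolated on Ni–NTA. They were incubated at 200 nM for 1 h at 25 °C on a custom Agilent array, double-stranded and BSA-blocked, in PBS with 2% BSA, salmon testes DNA and 50 µM zinc acetate. The binding signal is per-feature fluorescence intensity (arbitrary units) read on an Axon 4000B scanner after washing.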
With “CACACCTGCCGCCGTACCACCAGTGCCGGCTCGCCACGTCCGGAGTCACCTAGTGCAG”, the binding signal was 8310 fluorescence intensity (a.u.).

Take “ACAGCCAGCAACTATATGTTTTCAACAGGCCTGACTCAACCGGAGTCACCTAGTGCAG”: the binding signal was 10100 fluorescence intensity (a.u.).

Regarding “ATTTGACCCTGTATTAATTATCCCTTCTTAAAGATTTTGTCGGAGTCACCTAGTGCAG”, the binding signal is 8030 fluorescence intensity (a.u.).

For the sequence “CTCACTTACACAAAACATAATTCTCAGTTTGCCATCCACGCGGAGTCACCTAGTGCAG”, the binding signal is 8570 fluorescence intensity (a.u.).

In the case of “TAAAAATAAGGAGGTGCCCGCTTTTGTCATCCAACGCTACCGGAGTCACCTAGTGCAG”, the binding signal was 9320 fluorescence intensity (a.u.).

Turning to “AATCTCTCTCATGGCGCGCCTAATCTCTCCTCAATGTGAACGGAGTCACCTAGTGCAG”, the binding signal is 8900 fluorescence intensity (a.u.).

In the case of “CCACCCAGGCGCGTACCTCCCTAGTAAAAACGCCGCGCCGCGGAGTCACCTAGTGCAG”, the binding signal is 9570 fluorescence intensity (a.u.).

As to “TTGTTAAAGTGTCACTCCAAATTGATATCAAACCGTTTCTCGGAGTCACCTAGTGCAG”, the binding signal is 8420 fluorescence intensity (a.u.).

For the sequence “AACAGTACCGGTAACAGCATACCCAAGCTGCTTCTCCGGACGGAGTCACCTAGTGCAG”, the binding signal is 9570 fluorescence intensity (a.u.).

As to “CTCCGCCATGTTCTCCTGCCGCGAGCTCACCGAGCTTTACCGGAGTCACCTAGTGCAG”, the binding signal is 10300 fluorescence intensity (a.u.).

Take “TATTCGGTTAATGCCTTTGTCGTGATCAATTGACCTTTTGCGGAGTCACCTAGTGCAG”: the binding signal was 9100 fluorescence intensity (a.u.).

With “TCTGTTAACACAAGTTATTGGTTATTGTTGACCTTTTCTTCGGAGTCACCTAGTGCAG”, the binding signal is 9270 fluorescence intensity (a.u.).

For “CATTGTTGTGATCTGCATATTTACTTCTGTTTTGATGTTTCGGAGTCACCTAGTGCAG”, the binding signal is 9160 fluorescence intensity (a.u.).

Turning to “CTTCCTCTTTTCCCTGCTACCCGGTCGGCTCTATAAATACCGGAGTCACCTAGTGCAG”, the binding signal is 8710 fluorescence intensity (a.u.).

For the sequence “GCGGTGGCGGCGGCGGAGGCGGAGGCGGAGGCGGTGTTGACGGAGTCACCTAGTGCAG”, the binding signal was 11600 fluorescence intensity (a.u.).

On to “CGGGAGAATTCGATTGATGTGGTGGGTTCTCTTCTTCTTCCGGAGTCACCTAGTGCAG”, for which the binding signal is 10800 fluorescence intensity (a.u.).

As for “ACTCGTCGCCGCAACTCTACTTCCTCTTCGGGAACCCCAGCGGAGTCACCTAGTGCAG”, the binding signal is 9460 fluorescence intensity (a.u.).

On to “TCACACGCATCGCTACCTCCTTCCCTCGTCGTCTTCTTCGCGGAGTCACCTAGTGCAG”, for which the binding signal is 9870 fluorescence intensity (a.u.).

In the case of “TCCATCCTGCCATCACCGCTTACCCCTGTGCTCAATTAGACGGAGTCACCTAGTGCAG”, the binding signal was 8150 fluorescence intensity (a.u.).

With “AATGTTTGATACCGTTGACTTTTTAGTACGTGTTTGATCACGGAGTCACCTAGTGCAG”, the binding signal was 32600 fluorescence intensity (a.u.).

Take “CGGTTTCCGTGTCCGATTCTGTTCTTCTCCATATGTTGATCGGAGTCACCTAGTGCAG”: the binding signal was 12100 fluorescence intensity (a.u.).

Take “CTCGTAACCTGTACTACTGCATTTCCATTACATCTAGATACGGAGTCACCTAGTGCAG”: the binding signal is 11400 fluorescence intensity (a.u.).

Take “ACGGACACTTTCTCCCTATGGAGCTTACTGTTTATGTACACGGAGTCACCTAGTGCAG”: the binding signal was 8600 fluorescence intensity (a.u.).
